Source: PubChem BioAssay AID445 (National Center for Advancing Translational Sciences (NCATS), 2006)
The list shows a part of the results. Shown are side measurements of this screen, not its main read-out; they come without a call. The list favours compounds with an active or inconclusive main result. Potencies come from curve fits of mixed quality, noted in brackets.

experiment: IkB Signaling; settings: ABC-DLBCL IkBa-CBG/CBR dual luciferase ratio (green luciferase fused to IkBa over red control in OCI-Ly3 lymphoma cells), 4 h; measured here: control luc red channel unless noted
In short: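 Curves were fitted separately to fusion (green), unfused (red) and ratio luminescence, then classed by r2, magnitude and activity. Cells: OCI-Ly3, 4 h compound plus doxycycline at 37C; 10 uM MG-132 defined full response.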

For CC(C)(C)c1ccc(-c2noc(CCC(=O)Nc3cccc(Cl)c3)n2)cc1, which AC50 is on record?
Its AC50 is 3.16 µM [falling, full curve].

Which AC50 does the source give for Cc1ccc(S(=O)(=O)Cn2nnnc2CN2CCCC3(CCCCC3)C2)cc1 here?
The AC50 was 25.1 µM [falling, partial curve].

Which AC50 does the source give for CCOc1ccccc1CNC(=O)C1CCCN(S(=O)(=O)c2ccc3c(ccn3C)c2)C1 (stereo not given) here?
Its AC50 is 31.6 µM [falling, single point].

Which AC50 does the source give for Cc1cccn2cc(CCNC(=O)c3ccc(Br)o3)nc12 here?
The AC50 was 15.8 µM [falling, partial curve].

For O=C(c1cc(-n2cnnc2)ccc1Cl)N1CCN(c2nc(-c3ccccc3)cs2)CC1, which AC50 is on record?
Its AC50 is 10 µM [falling, partial curve].

With COc1ccc(OC)c(S(=O)(=O)NCCc2csc3nc(-c4ccccc4)nn23)c1 as the compound, how does the AC50 read?
Its AC50 is 31.6 µM [falling, single point].

Which AC50 does the source give for Cc1cccc(N2CCN(C(=O)c3ccc4c(c3)c(C)c(C)n4C)CC2C)c1 (stereo not given) here?
Its AC50 is 3.16 µM [rising, partial curve] [measured here: IkB-luc green channel].

Which AC50 does the source give for CCc1ccc(CNC(=O)CN2C(=O)CCn3nc(-c4cn(C)c5ccccc45)cc32)cc1 here?
Its AC50 is 10 µM [falling, partial curve].

With COc1ccccc1-c1nnc(SCC(=O)c2ccc(F)cc2)n1-c1ccccc1 as the compound, how does the AC50 read?
Its AC50 is 31.6 µM [falling, single point].

With Cn1nnnc1SCCNCc1ccc(OCc2ccc(Cl)cc2)cc1 as the compound, how does the AC50 read?
Its AC50 is 25.1 µM [falling, single point].

Which AC50 does the source give for O=C(Nc1cccc(Cl)c1)C1CCCN1S(=O)(=O)c1cccc2cccnc12 (stereo not given) here?
Its AC50 is 20 µM [falling, partial curve].

Which AC50 does the source give for Cc1ccc(CN2C(=O)c3ccccc3Sc3ccc(C(=O)NCCCN4CCOCC4)cc32)cc1 here?
Its AC50 is 5.01 µM [falling, partial curve].

For Cc1ccc2nc(Nc3ccc4[nH]c(=O)[nH]c4c3)c(-n3nc(C)cc3C)nc2c1, which AC50 is on record?
Its AC50 is 158 nM [falling, full curve] [measured here: IkB-luc green channel].

Which AC50 does the source give for O=C(COC(=O)C1c2ccccc2Oc2ccccc21)Nc1ccc2c(c1)OCO2 here?
Its AC50 is 15.8 µM [falling, partial curve].

Which AC50 does the source give for Cc1oc(-c2cccc(Cl)c2)nc1CN1CCC(C(=O)NCCc2ccc(Cl)cc2)CC1 here?
The AC50 was 20 µM [falling, partial curve].

Which AC50 does the source give for CCC[C@@H]1O[C@@H]2C[C@@H]3[C@H]4CCC5=CC(=O)C=C[C@@]5(C)[C@H]4[C@H](O)C[C@@]3(C)[C@@]2(C(=O)CO)O1 here?
Its AC50 is 501 nM [rising, full curve] [measured here: IkB-luc green channel].

For CCOc1ccc(-c2nnn(CCC(=O)O)n2)cc1OC, which AC50 is on record?
The AC50 was 20 µM [falling, partial curve].

With COc1ccc(C(=O)Nc2ccc(N3CCOCC3)c(C(F)(F)F)c2)cc1OC as the compound, how does the AC50 read?
Its AC50 is 31.6 µM [falling, partial curve].

Which AC50 does the source give for CCc1cccc(NC(=O)C(CC(C)C)NS(=O)(=O)c2ccc3c(c2)oc(=O)n3C)c1 (stereo not given) here?
Its AC50 is 12.6 µM [falling, partial curve].

Which AC50 does the source give for COc1ccccc1CN1CCC(CNC(=O)c2cnn(-c3ccc(C)c(C)c3)c2C2CCN(C(=O)OC(C)(C)C)CC2)CC1 here?
The AC50 was 10 µM [falling, partial curve, poor fit].

With COC(=O)C1=C(C)N(C)C(C)=C(C(=O)OC)C1c1ccc(C(=O)OC)cc1 as the compound, how does the AC50 read?
The AC50 was 15.8 µM [rising, partial curve] [measured here: IkB-luc green channel].

With COc1ccccc1NC(=O)c1cc(C2CC2)nc2c1c(C)nn2-c1ccc(C)cc1 as the compound, how does the AC50 read?
Its AC50 is 6.31 µM [falling, partial curve].

With O=c1c(N2CCc3ccccc3C2)csc2ccc(Br)cc12 as the compound, how does the AC50 read?
The AC50 was 12.6 µM [falling, partial curve].

Which AC50 does the source give for COc1ccccc1Cc1nc2ccccc2nc1SCC(=O)N1CCC(C)CC1 here?
The AC50 was 31.6 µM [falling, single point].

For Cc1nc2c(ccc3nc(NC(=O)c4ccc(S(=O)(=O)N(C)C)cc4)sc32)s1, which AC50 is on record?
The AC50 was 12.6 µM [falling, partial curve].

With Cc1ccc2nc(SCC(=O)Nc3ccc(C#N)cc3)[nH]c2c1 as the compound, how does the AC50 read?
The AC50 was 25.1 µM [falling, single point].

With Cc1c(C(=O)N2CCC(C)CC2)c(S(=O)(=O)N2CCN(c3cccc(Cl)c3)CC2)c(C)n1C as the compound, how does the AC50 read?
The AC50 was 31.6 µM [falling, partial curve].

Which AC50 does the source give for COc1ccc(S(=O)(=O)c2cn(Cc3ccccc3)c3cc(F)c(F)cc3c2=O)cc1 here?
Its AC50 is 25.1 µM [falling, single point].

Which AC50 does the source give for CCOc1ccc(C(=O)NCc2ccc3c(c2)CCN3C(=O)c2ccc(C)cc2)cc1OCC here?
Its AC50 is 6.31 µM [rising, partial curve].

Which AC50 does the source give for COc1ccccc1NC(=O)c1cc(S(=O)(=O)N2CCc3ccccc32)ccc1F here?
The AC50 was 12.6 µM [falling, partial curve].

With COC(=O)c1cccc(-n2nnnc2SCC(=O)Nc2nc3c(s2)CCCC3)c1 as the compound, how does the AC50 read?
Its AC50 is 20 µM [falling, partial curve].

Which AC50 does the source give for C=Cc1ccc(Cn2c(=O)cc(C)c3c(C)nn(C)c32)cc1 here?
The AC50 was 0.0794 µM [rising, full curve, poor fit].

For Cc1ccccc1NS(=O)(=O)c1ccc(OCC(=O)NCc2ccco2)cc1, which AC50 is on record?
The AC50 was 10 µM [falling, partial curve].

For COc1cc(-c2nnc(SCC(=O)Oc3ccccc3Cl)o2)cc(OC)c1OC, which AC50 is on record?
The AC50 was 39.8 µM [falling, single point].

For COc1ccc(S(=O)(=O)c2cn(Cc3ccccc3)c3ccc(OC)cc3c2=O)cc1, which AC50 is on record?
The AC50 was 39.8 µM [falling, single point].

Which AC50 does the source give for CN(C)c1ccc(C(CNS(=O)(=O)c2ccc(F)cc2)N2CCc3ccccc32)cc1 (stereo not given) here?
Its AC50 is 10 µM [falling, partial curve, poor fit].

With CCn1c(SCc2ccccc2Cl)nc(=O)c2c(C(=O)OC)cc(C3CC3)nc21 as the compound, how does the AC50 read?
Its AC50 is 31.6 µM [falling, partial curve].

Which AC50 does the source give for Cc1cc(C)c2c(-n3cccc3)c(C(=O)NCCCN3CCCCC3C)sc2n1 (stereo not given) here?
Its AC50 is 10 µM [falling, partial curve].

With COC(=O)Cc1c(C)nc2nc(-c3ccc(OC)cc3)[nH]n2c1=O as the compound, how does the AC50 read?
The AC50 was 3.98 µM [falling, partial curve].

Which AC50 does the source give for Cc1ccc(S(=O)(=O)N(CC(=O)NCc2ccco2)Cc2ccccc2F)cc1 here?
The AC50 was 39.8 µM [falling, partial curve].

Which AC50 does the source give for CC(=O)Nc1nonc1-c1nnc(SCc2ccc(Cl)cc2)n1C here?
The AC50 was 12.6 µM [falling, single point].

With COc1ccc2[nH]c(=O)c(CN(CC3CCCO3)C(=O)Nc3ccccc3OC)cc2c1 (stereo not given) as the compound, how does the AC50 read?
The AC50 was 10 µM [falling, partial curve].

Which AC50 does the source give for Cc1ccc2[nH]c(=O)c(CN(Cc3cccs3)Cc3nnnn3Cc3ccccc3)cc2c1 here?
The AC50 was 3.16 µM [falling, partial curve].

Which AC50 does the source give for Cc1ccc(-c2noc(-c3ccc(N4CCCCC4)c([N+](=O)[O-])c3)n2)cc1 here?
The AC50 was 0.316 µM [rising, full curve].

For O=C(Nc1cc(NC(=O)c2ccccc2Cl)ccc1Cl)c1ccccc1, which AC50 is on record?
The AC50 was 25.1 µM [falling, partial curve].

With CCOc1ccccc1CNC(=O)c1ccc2nc(Cc3ccc(OC)cc3)oc2c1 as the compound, how does the AC50 read?
Its AC50 is 39.8 µM [falling, single point].

Which AC50 does the source give for O=C(O)CCCNc1cc(N2CCC3(CC2)OCCO3)c2noc3c2c1C(=O)c1ccccc1-3 here?
The AC50 was 6.31 µM [falling, partial curve].

For CCOc1ccccc1NC(=O)N1CCCC(c2nc3c(nnn3Cc3ccc(C)cc3)c(=O)[nH]2)C1 (stereo not given), which AC50 is on record?
The AC50 was 39.8 µM [falling, single point].

Which AC50 does the source give for Cc1ccc(OCC(=O)Nc2ccc(S(=O)(=O)Nc3ncccn3)cc2)c(C(C)(C)C)c1 here?
The AC50 was 39.8 µM [falling, single point].

Which AC50 does the source give for O=c1c2sc3ccccc3c2n(Cc2cccc(C(F)(F)F)c2)c(=O)n1Cc1ccco1 here?
The AC50 was 39.8 µM [falling, single point].

With Cc1cc(=O)c2cc(C(=O)Nc3ccccc3)ccc2[nH]1 as the compound, how does the AC50 read?
The AC50 was 39.8 µM [falling, single point].

With Cc1ccc2cccc(NC(=O)c3ccc(-c4ccc(Br)cc4)o3)c2n1 as the compound, how does the AC50 read?
The AC50 was 7.94 µM [falling, partial curve].

With Oc1ccccc1C1=Nc2ccccc2N=C(c2ccco2)C1 as the compound, how does the AC50 read?
The AC50 was 5.01 µM [falling, partial curve].

For NS(=O)(=O)c1ccc(CCNC(=O)c2nc(SCc3ccccc3F)ncc2Cl)cc1, which AC50 is on record?
Its AC50 is 1.26 µM [rising, partial curve].

For COc1cccc(C2C(C(=O)Nc3ccccc3OC)=C(C)Nc3nc4ccccc4n32)c1 (stereo not given), which AC50 is on record?
Its AC50 is 6.31 µM [falling, full curve].

Which AC50 does the source give for COc1ccccc1NC(=O)CSc1nc(N)cc(N)n1 here?
The AC50 was 15.8 µM [falling, partial curve].

For COc1ccccc1N1CCN(C(=O)CCS(=O)(=O)c2cc(Br)cc3c2N(C(=O)C2CC2)CC3)CC1, which AC50 is on record?
Its AC50 is 25.1 µM [falling, single point].

For COc1ccc2oc(=O)c(C(=O)NCCc3c(C)[nH]c4ccc(Br)cc34)cc2c1, which AC50 is on record?
Its AC50 is 25.1 µM [falling, single point].

Which AC50 does the source give for Cc1ccc(-c2csc(/C(C#N)=C/c3ccccc3Cl)n2)cc1 here?
The AC50 was 25.1 µM [rising, partial curve].

For Cc1ccc(-n2ncc3c(=O)n(CC(=O)N4CCCc5ccccc54)cnc32)cc1C, which AC50 is on record?
The AC50 was 15.8 µM [falling, partial curve].
